Results as given in PubChem BioAssay (EPA / NIEHS).
Values joined by “and” are separate entries in the source; they are usually repeats but may differ in a detail not shown here. Equal values may be shown once. Inconclusive results, whose numbers are uncertain, are shown with a selection of clear calls. For some of these results: Potencies beside an inconclusive call are fits to weak or partial responses and may not hold up. Some structures have more than one record in an assay (separate samples or runs), and their calls can disagree. Active and inactive are the calls of the source. Rule for the calls: active = hit-call score of the fitted dose curve at least 0.9, where 1 is the maximum; inconclusive = response in the unintended direction; inactive = score below 0.9.

Sequences of proteins named here, by UniProt entry; tags and fusion partners are left off. A change or cut given only in a name is not applied to a line headed by its entry.
UniProt P04150: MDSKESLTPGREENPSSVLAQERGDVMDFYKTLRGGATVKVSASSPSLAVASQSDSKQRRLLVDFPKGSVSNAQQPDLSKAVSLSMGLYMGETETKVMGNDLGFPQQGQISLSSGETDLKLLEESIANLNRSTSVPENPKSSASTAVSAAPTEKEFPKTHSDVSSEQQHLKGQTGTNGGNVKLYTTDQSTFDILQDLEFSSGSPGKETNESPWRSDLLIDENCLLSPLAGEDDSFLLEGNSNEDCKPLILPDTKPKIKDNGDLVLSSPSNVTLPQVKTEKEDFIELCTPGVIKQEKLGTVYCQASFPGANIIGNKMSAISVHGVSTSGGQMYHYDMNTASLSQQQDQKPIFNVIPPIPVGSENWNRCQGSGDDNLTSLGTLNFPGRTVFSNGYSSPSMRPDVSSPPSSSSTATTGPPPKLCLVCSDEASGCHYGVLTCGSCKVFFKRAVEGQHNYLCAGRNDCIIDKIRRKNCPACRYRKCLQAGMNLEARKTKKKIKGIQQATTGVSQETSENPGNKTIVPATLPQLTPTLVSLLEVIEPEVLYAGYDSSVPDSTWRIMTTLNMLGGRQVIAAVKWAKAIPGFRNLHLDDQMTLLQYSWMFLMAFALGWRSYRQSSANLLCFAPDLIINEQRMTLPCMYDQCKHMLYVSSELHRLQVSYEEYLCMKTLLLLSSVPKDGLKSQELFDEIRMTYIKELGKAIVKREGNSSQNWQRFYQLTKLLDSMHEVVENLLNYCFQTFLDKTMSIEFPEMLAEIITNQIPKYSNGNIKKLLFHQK
UniProt Q96RI1: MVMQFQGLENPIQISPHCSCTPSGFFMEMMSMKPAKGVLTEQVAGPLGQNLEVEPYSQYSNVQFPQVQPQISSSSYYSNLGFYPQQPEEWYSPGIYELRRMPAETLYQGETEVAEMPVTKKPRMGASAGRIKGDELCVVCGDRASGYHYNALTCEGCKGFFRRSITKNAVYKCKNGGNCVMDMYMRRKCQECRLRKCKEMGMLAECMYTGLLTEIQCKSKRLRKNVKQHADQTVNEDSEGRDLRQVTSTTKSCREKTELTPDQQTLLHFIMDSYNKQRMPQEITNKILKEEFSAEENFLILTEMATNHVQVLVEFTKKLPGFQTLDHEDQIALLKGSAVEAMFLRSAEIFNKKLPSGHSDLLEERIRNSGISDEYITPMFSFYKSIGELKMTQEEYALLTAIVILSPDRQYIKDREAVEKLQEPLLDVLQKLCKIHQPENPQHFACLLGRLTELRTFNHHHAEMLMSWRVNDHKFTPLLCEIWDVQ
UniProt P55055, whole entry, looked up: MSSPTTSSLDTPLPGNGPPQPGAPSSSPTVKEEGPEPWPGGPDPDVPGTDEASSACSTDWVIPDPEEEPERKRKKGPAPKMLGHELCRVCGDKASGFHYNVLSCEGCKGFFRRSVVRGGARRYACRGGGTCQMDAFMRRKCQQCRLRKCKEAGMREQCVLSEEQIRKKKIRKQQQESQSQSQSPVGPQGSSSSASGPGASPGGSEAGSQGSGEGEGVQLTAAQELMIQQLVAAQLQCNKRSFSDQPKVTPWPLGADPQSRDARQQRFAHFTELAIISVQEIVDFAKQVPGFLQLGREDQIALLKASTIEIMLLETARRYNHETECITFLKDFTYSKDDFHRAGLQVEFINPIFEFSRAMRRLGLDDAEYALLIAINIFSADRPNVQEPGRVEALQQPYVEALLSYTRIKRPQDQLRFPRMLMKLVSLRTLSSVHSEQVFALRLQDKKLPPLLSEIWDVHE
UniProt P11473: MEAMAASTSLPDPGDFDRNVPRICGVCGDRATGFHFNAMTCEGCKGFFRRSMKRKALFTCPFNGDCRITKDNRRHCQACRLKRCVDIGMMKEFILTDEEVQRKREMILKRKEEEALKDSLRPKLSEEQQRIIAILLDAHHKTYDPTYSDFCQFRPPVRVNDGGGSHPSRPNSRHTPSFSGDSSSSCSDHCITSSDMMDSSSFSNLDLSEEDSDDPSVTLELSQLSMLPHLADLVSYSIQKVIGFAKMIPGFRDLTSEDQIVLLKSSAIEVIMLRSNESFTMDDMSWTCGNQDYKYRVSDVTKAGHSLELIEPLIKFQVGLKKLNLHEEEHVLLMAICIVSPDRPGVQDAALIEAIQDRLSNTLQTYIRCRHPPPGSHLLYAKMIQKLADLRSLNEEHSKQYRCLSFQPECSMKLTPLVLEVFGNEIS
UniProt P04637, whole entry, looked up: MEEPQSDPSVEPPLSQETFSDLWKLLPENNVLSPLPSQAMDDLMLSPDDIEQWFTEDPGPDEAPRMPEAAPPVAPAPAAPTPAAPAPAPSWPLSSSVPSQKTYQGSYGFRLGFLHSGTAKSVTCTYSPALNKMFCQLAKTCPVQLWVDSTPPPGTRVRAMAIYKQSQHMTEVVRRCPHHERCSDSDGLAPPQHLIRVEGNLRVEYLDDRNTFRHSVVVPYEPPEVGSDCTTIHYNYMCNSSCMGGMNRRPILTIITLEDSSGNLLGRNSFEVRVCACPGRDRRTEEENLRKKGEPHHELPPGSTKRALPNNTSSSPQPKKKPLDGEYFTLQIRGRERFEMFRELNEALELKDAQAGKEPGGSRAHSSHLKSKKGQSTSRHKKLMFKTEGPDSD
UniProt P62508: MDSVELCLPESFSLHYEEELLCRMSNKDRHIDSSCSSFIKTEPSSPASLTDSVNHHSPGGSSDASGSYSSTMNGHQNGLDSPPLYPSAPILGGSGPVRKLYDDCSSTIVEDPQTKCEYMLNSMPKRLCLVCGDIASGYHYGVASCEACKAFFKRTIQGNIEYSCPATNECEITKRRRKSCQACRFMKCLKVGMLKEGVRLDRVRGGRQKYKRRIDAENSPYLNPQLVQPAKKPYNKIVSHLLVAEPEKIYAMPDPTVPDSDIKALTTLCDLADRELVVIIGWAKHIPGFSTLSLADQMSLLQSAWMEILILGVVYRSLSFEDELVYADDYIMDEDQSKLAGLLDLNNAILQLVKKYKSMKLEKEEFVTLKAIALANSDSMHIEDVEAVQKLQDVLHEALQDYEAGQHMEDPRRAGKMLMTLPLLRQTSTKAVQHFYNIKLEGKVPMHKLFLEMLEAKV
UniProt P19793: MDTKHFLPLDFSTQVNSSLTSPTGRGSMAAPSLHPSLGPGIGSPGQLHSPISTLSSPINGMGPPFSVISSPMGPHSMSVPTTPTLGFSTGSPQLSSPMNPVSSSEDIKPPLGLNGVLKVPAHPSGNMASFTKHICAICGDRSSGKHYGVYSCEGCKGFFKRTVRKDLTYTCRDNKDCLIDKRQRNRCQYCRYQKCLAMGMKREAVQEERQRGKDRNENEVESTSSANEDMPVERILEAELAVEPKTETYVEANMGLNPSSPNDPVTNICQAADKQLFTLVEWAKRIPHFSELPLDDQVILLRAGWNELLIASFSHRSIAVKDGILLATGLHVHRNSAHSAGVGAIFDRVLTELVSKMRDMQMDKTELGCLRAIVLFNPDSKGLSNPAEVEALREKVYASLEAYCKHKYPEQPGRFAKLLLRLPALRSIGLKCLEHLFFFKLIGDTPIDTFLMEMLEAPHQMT
UniProt P37231: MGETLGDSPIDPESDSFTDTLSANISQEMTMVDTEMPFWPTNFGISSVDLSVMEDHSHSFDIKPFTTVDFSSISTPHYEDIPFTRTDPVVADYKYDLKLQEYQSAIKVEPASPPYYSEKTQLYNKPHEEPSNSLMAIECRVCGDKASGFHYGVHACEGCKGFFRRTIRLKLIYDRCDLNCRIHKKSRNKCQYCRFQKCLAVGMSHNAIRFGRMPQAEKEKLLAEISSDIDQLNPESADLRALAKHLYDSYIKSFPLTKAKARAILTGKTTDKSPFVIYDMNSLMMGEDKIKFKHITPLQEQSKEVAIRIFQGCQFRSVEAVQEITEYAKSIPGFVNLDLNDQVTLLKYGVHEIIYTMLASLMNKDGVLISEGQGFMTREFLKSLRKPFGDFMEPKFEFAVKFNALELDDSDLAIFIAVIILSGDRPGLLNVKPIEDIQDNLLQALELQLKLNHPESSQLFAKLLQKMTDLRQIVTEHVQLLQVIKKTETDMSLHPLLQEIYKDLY
UniProt P04406: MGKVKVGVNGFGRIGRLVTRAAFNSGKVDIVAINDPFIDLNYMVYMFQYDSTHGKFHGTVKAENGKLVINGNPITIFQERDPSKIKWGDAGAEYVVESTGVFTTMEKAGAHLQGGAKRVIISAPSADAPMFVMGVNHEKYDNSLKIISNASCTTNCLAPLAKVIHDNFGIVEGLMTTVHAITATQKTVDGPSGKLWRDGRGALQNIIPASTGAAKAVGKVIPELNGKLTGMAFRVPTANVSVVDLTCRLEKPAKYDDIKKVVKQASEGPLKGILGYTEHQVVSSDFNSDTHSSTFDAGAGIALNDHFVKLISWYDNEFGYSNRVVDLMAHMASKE
UniProt Q03181: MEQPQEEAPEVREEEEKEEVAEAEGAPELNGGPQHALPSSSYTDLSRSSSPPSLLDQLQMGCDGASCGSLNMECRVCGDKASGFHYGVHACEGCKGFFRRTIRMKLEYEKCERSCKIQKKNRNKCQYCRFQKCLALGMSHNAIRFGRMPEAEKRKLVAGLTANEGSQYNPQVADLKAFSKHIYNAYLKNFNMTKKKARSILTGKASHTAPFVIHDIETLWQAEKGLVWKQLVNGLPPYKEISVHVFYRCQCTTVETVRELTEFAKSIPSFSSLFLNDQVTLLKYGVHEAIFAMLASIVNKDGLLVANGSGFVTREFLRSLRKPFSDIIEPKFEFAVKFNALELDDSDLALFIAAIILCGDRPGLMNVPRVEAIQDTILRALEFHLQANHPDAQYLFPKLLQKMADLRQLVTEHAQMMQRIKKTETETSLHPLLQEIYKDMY

Experiments:
[1] = molecular target: Glucocorticoid receptor (Homo sapiens) (UniProt P04150); assay: ATG_GR_TRANS: Attagene TRANS-FACTORIAL HepG2 Assay for human Glucocorticoid Receptor (GR) (AID 2282978); conditions: HepG2 Attagene TRANS GR reporter, mRNA transcription;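 note: activators score as hits since higher reporter transcript over DMSO is fitted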
Procedure, shortened: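 Transient MRTU transfection of HepG2 (GAL4-UAS reporters, exogenous NR-GAL4 chimeras), 24 h dosing. Readout: reporter transcript via RT-PCR + capillary electrophoresis fluorescence. Positive direction vs DMSO baseline.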

[2] = molecular target: Bile acid receptor (Homo sapiens) (UniProt Q96RI1); assay: ATG_FXR_TRANS: Attagene TRANS-FACTORIAL HepG2 Assay for Farnesoid X Receptor (FXR) (AID 2282979); conditions: HepG2 Attagene TRANS FXR-GAL4 reporter transcription;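 note: hits raise reporter mRNA above DMSO so AC50 marks FXR activation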
Procedure, shortened: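 Transient transfection of HepG2 with multiplexed GAL4-UAS reporter units; exogenous FXR-GAL4 chimera. Dose 24 h → TriZol RNA → oligo(dT) RT → PCR, 6-FAM primer extension, HpaI cut → CE. Gain vs DMSO.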

[3] = molecular target: Oxysterols receptor LXR-beta (Homo sapiens) (UniProt P55055); assay: ATG_LXRb_TRANS: Attagene TRANS-FACTORIAL HepG2 Assay for human Liver X Receptor beta (LXRb) (AID 2282981); conditions: HepG2 Attagene TRANS GAL4-LXRb reporter, mRNA
Procedure, shortened: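 In this TRANS format, exogenous chimeric NR-Gal4 protein activity, not endogenous factors, drives reporter expression in transfected human HepG2 cells. Exposure lasted 24 h; reporter mRNA was read by fluorescent capillary electrophoresis.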

[4] = ATG_M_06_TRANS: Attagene TRANS-FACTORIAL HepG2 Assay for M06 Transcription Factor (Internal Marker) (AID 2282983); conditions: HepG2 Attagene TRANS M06 internal marker reporter;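 for AC50: potency for rise in reporter mRNA above DMSO baseline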
Procedure, shortened: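 Transfect HepG2 with MRTUs → dose compounds 24 h → isolate RNA, oligo(dT) RT → PCR with reporter primers → 6-FAM primer extension → HpaI digest → CE fragment analysis. Positive direction vs DMSO.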

[5] = molecular target: human Vitamin D Receptor (VDR), VDR (gene 7421) (UniProt P11473); assay: ATG_VDR_TRANS: Attagene TRANS-FACTORIAL HepG2 Assay for human Vitamin D Receptor (VDR) (AID 2283022)
Procedure, shortened: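 Steps: transfect HepG2 with GAL4-UAS-driven reporter constructs; dose compounds 24 h; isolate RNA, reverse-transcribe, PCR-amplify with 6-FAM-labelled primer extension and HpaI digestion; quantify fragments by capillary electrophoresis relative to DMSO.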

[6] = molecular target: Cellular tumor antigen p53 (Homo sapiens) (UniProt P04637); assay: TOX21_p53_BLA_p5_ratio: Tox21 HCT-116 p53 Agonism Beta-lactamase Assay, Ratio, Phase 5 (AID 2283599)
Procedure, shortened: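 HCT-116 cells carrying a p53-inducible beta-lactamase reporter were seeded at 4000 cells/well and dosed after 5 h with compound in DMSO (217-fold dilution). After 16 h at 37C, CCF4-AM substrate was added for 2 h, and the 460/530 nm emission ratio was scored as gain-of-signal versus DMSO.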

[7] = molecular target: Cellular tumor antigen p53 (Homo sapiens) (UniProt P04637); assay: TOX21_p53_BLA_p4_ratio: Tox21 HCT-116 p53 Agonism Beta-lactamase Assay, Ratio, Phase 4 (AID 2283601)
Procedure, shortened: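 HCT116 cells carrying an inducible beta-lactamase reporter were plated at 4000 cells/well, rested 5 h, then exposed to compounds in DMSO (217-fold dilution) for 16 h at 37C. CCF4-AM substrate was loaded 2 h at room temperature; 460/530 nm emission ratio scored gain-of-signal versus DMSO.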

[8] = molecular target: Estrogen-related receptor gamma (Homo sapiens) (UniProt P62508); assay: ATG_ERRg_TRANS: Attagene TRANS-FACTORIAL HepG2 Assay for human Estrogen-Related Receptor gamma (ERRg) (AID 2282977); conditions: HepG2 Attagene TRANS reporter, ERRg transactivation;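 note: hits increase reporter signal over DMSO so potencies reflect activators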
Procedure, shortened: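 HepG2 cells transiently transfected with multiplexed GAL4-UAS reporter units driven by chimeric NR-Gal4 proteins; 24 h exposure. Reporter mRNA quantified by RT-PCR, fluorescent labelling, HpaI digestion and capillary electrophoresis; gain of signal vs DMSO.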

[9] = molecular target: Retinoic acid receptor RXR-alpha (Homo sapiens) (UniProt P19793); assay: OT_NURR1_NURR1RXRa_0480: Odyssey Thera (OT) 8-hour HEK293T Protein Complementation Assay for Nurr1/retinoid X receptor (RXR) (AID 2283385)
Procedure, shortened: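 HEK293T cells expressing Nurr1 and RXRα fused to reporter fragments (protein-fragment complementation); fluorescence measured 8 h after dosing. Gain of signal fitted relative to DMSO.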

[10] = molecular target: Retinoic acid receptor RXR-alpha (Homo sapiens) (UniProt P19793); assay: OT_NURR1_NURR1RXRa_1440: Odyssey Thera (OT) 24-hour HEK293T Protein Complementation Assay for Nurr1/retinoid X receptor (RXR) (AID 2283386)
Procedure, shortened: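 HEK293T protein-fragment complementation of Nurr1 and RXRα fused to reporter fragments; compounds 24 h. Fluorescence gain from reconstituted reporter fitted versus DMSO.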

[11] = TOX21_p53_BLA_p5_viability: Viability Assessment in the Tox21 HCT-116 p53 Agonism Beta-lactamase Assay, Phase 5 (AID 2283600)
Procedure, shortened: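 4000 cells/well; 5 h pre-incubation; DMSO compounds pin-transferred, 217-fold dilution; 16 h, 37C/5% CO2; CCF4-AM 2 h RT; CellTiter-Glo 30 min RT; luminescence.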

[12] = ACEA_ER_AUC_viability: ACEA Biosciences xCELLigence Real-Time Cell Analysis on Estrogen Receptor Agonism for Viability (AID 2283782);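 note: continuous compound exposure with impedance area under curve over 80 h; hit means loss of impedance signal meaning reduced cell growth or viability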
Procedure, shortened: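 T-47D human breast cells in phenol red-free RPMI1640 with 10% charcoal-stripped FBS were dosed with an 8-point 1:4 dilution series from 100 uM top final concentration, in duplicate. Impedance-based growth was followed for 80 h; AUC analysed versus DMSO.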

[13] = molecular target: Peroxisome proliferator-activated receptor gamma (Homo sapiens) (UniProt P37231); assay: ATG_PPARg_TRANS: Attagene TRANS-FACTORIAL HepG2 Assay for human Peroxisome Proliferator-activated Receptor-gamma (PPARg) (AID 2283007)
Procedure, shortened: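 Read-out: reporter mRNA induction, detected by fluorescence after RT-PCR and capillary electrophoresis. Transiently transfected human HepG2 liver cells carrying a chimeric NR-Gal4 construct were dosed for 24 h; activity was fitted upward relative to DMSO.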

[14] = CCTE_Harrill_HTTr_CellCount_MCF7: CCTE's Cell Proliferation Assessment for the High-Throughput Transcriptomics (HTTr) Platform, Harrill Lab (AID 2284012);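 note: cells exposed to compound for six hours; intended direction is loss of nuclei count meaning fewer cells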
Procedure, shortened: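 MCF7 cells exposed 6 hours to an eight-point dilution series; Hoechst-stained nuclei counted by high-content imaging. Bidirectional curve fitting against DMSO baseline.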

[15] = molecular target: Cellular tumor antigen p53 (Homo sapiens) (UniProt P04637); assay: TOX21_p53_BLA_p3_ratio: Tox21 HCT-116 p53 Agonism Beta-lactamase Assay, Ratio, Phase 3 (AID 2283596)
Procedure, shortened: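 HCT116 p53-bla cells (4000/well) given compound in DMSO (217-fold dilution) after 5 h, incubated 16 h at 37C. CCF4-AM substrate 2 h at room temperature; 460/530 nm emission ratio, gain fitted against DMSO.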

[16] = read-out: HMG-CoA synthase (HMGCS2), HMGCS2 (gene 3158); assay: CLD_HMGCS2_24hr: CellzDirect (CLD) Gene Expression Assay for HMG-CoA synthase (HMGCS2) at 24 hours (AID 2283691)
Procedure, shortened: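 Primary human hepatocytes from two donor preparations, dosed daily with fresh solutions; vehicle 0.2% DMSO, 24 h harvest. HMGCS2 mRNA quantified by qNPA with S1 nuclease digestion and chemiluminescence; gain fitted versus DMSO, cytotoxicity annotated by morphology.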

[17] = read-out: Glyceraldehyde-3-phosphate dehydrogenase (Homo sapiens) (UniProt P04406); assay: CLD_GAPDH_24hr: CellzDirect (CLD) Gene Expression Assay for Baseline Control (Glyceraldehyde 3-phosphate dehydrogenase) at 24 hours (AID 2283692)
Procedure, shortened: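 Primary human hepatocytes (two donor preparations) dosed daily for two days, 0.2% DMSO vehicle; GAPDH mRNA measured at 24 h by qNPA chemiluminescence as a background control, gain-of-signal fitted against DMSO.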

[18] = read-out: HMG-CoA synthase (HMGCS2), HMGCS2 (gene 3158); assay: CLD_HMGCS2_48hr: CellzDirect (CLD) Gene Expression Assay for HMG-CoA synthase (HMGCS2) at 48 hours (AID 2283711)
Procedure, shortened: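 Primary human hepatocytes from two donors dosed daily for two days, 0.2% DMSO vehicle. HMGCS2 mRNA measured 48 h after dosing by quantitative nuclease protection assay with chemiluminescent read-out; induction fitted relative to DMSO, cytotoxicity flagged by microscopy.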

[19] = molecular target: Cellular tumor antigen p53 (Homo sapiens) (UniProt P04637); assay: TOX21_p53_BLA_p2_ratio: Tox21 HCT-116 p53 Agonism Beta-lactamase Assay, Ratio, Phase 2 (AID 2283592)
Procedure, shortened: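 HCT116 p53-bla; 4000 cells/well; 5 h pre-incubation; cpd in DMSO, 217-fold dilution; 16 h 37C/5% CO2; CCF4-AM 2 h RT; Ex 405, Em 460/530 ratio; DMSO = baseline; positive fitting direction.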

[20] = molecular target: human Peroxisome Proliferator-activated Receptor delta (PPARd), PPARD (gene 5467) (UniProt Q03181); assay: ATG_PPARd_TRANS: Attagene TRANS-FACTORIAL HepG2 Assay for human Peroxisome Proliferator-activated Receptor delta (PPARd) (AID 2283002)
Procedure, shortened: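 Measured quantity: GAL4-UAS reporter transcript induction in HepG2 after 24 h chemical dosing, with NR-Gal4 chimeras supplied by transient transfection. Detection by RT-PCR and capillary electrophoresis; upward fit against DMSO.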

Measured: AC50

CCCCOCC1CO1 (centres undefined)
inactive: [5] | [6]
inconclusive: [1] 100 µM | [2] 100 µM | [3] 100 µM | [4] 0.0093 µM | [6] 46.3 µM | [7] 75.3 µM

CCN(CC)C1CCCCC1
inactive: [11] | [7] | [12]
inconclusive: [8] 100 µM | [2] 100 µM

C=CCCl
inconclusive: [11] 47.9 µM | [7] 47.9 µM

O=C(NCNC(=O)NC1C(=O)NC(=O)N1CO)NC1C(=O)NC(=O)N1CO (centres undefined)
inactive: [8]
inconclusive: [1] 6.31 µM | [2] 167 µM | [3] 100 µM | [6] 46.1 µM | [11] 46.1 µM and 23 µM | [7] 46.1 µM
active: [10] 78 µM

Reprinted at random: 2 records from the list, in no set order.
CCN(CC)C1CCCCC1
inactive: [11] | [7] | [12]
inconclusive: [8] 100 µM | [2] 100 µM

C=CCCl
inconclusive: [11] 47.9 µM | [7] 47.9 µM

Next part

CC(COc1ccc(Oc2ccccc2)cc1)Oc1ccccn1 (centres undefined)
active: [13] 14.5 µM | [9] 63.2 µM
inconclusive: [2] 0.0288 µM | [4] 0.0276 µM | [15] 46.1 µM | [11] 46.1 µM | [17] 9.9 µM
inactive: [3] | [5] | [16] | [18] | [12] | [14]

C#CCOC(=O)/C=C(C)/C=C/CC(C)CCCC(C)C (centres undefined)
inconclusive: [8] 100 µM | [3] 100 µM | [19] 39.1 µM | [15] 31.5 µM | [6] 32.7 µM | [11] 73.8 µM | [7] 22.9 µM

CNC(=O)/C=C(\C)OP(=O)(OC)OC
inactive: [13] | [18]
inconclusive: [8] 0.0781 µM | [20] 12 µM | [9] 0.03 µM | [10] 50 µM | [16] 20 µM | [17] 20 µM | [12] 0.0102 µM | [14] 50 µM

COC(=O)COc1ccc(Cl)cc1Cl
inactive: [8] | [19] | [15]
inconclusive: [3] 0.0906 µM | [4] 26.9 µM | [20] 0.0823 µM | [5] 0.0823 µM | [6] 0.00012 µM

CC(C)COP(=O)(OCC(C)C)OCC(C)C
inactive: [4] | [6]
inconclusive: [8] 100 µM | [3] 16.2 µM | [20] 100 µM | [19] 86.6 µM | [11] 46.1 µM

Nc1ccc(Cl)cc1N
inactive: [4] | [11] | [7]
inconclusive: [8] 24.7 µM | [11] 47.6 µM
active: [9] 39.2 µM | [10] 31.3 µM | [6] 74.7 µM
